The results in this text go back to paper PMC6830296 (Journal of Enzyme Inhibition and Medicinal Chemistry, 2019).

Chains of the proteins cited; added tags and fusions are not shown. Residues count along the entry.
UniProt Q5NH77, 1-228: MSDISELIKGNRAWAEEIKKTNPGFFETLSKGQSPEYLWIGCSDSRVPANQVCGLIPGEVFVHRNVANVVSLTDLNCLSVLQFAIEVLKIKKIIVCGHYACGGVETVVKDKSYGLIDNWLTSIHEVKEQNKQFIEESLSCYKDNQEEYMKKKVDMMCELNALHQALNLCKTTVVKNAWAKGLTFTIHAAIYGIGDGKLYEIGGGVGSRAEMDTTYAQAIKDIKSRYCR

In the experiment the target is T1, FtuβCA (Francisella tularensis, UniProt Q5NH77).
T1 construct: gene cynT
In kind it is biochemical. The conditions noted are these: read-out: KI (μM)^a / FtuβCA; CO2 hydration, TRIS pH 8.3, 20 mM Na2SO4, 1 h preincubation at room temperature.

`CC(=O)Nc1nnc(S(N)(=O)=O)s1` [AAZ, acetazolamide, reference compound]: the Ki is 0.77 µM.
